The text below walks through data of publication PMC9348797.

By UniProt entry, the sequences of proteins in these tests, tags left out. Where a name states a change or a piece, a line headed by the entry shows the natural chain unless it says otherwise.
UniProt Q9UBY8: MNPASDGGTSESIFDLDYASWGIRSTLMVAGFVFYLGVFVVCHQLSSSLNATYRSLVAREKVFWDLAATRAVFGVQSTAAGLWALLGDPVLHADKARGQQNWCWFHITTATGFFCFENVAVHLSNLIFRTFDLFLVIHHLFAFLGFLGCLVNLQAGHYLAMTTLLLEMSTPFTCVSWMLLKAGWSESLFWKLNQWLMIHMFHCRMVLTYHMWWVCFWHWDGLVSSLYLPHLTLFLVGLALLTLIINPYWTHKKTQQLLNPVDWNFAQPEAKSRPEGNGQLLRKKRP
UniProt O14773: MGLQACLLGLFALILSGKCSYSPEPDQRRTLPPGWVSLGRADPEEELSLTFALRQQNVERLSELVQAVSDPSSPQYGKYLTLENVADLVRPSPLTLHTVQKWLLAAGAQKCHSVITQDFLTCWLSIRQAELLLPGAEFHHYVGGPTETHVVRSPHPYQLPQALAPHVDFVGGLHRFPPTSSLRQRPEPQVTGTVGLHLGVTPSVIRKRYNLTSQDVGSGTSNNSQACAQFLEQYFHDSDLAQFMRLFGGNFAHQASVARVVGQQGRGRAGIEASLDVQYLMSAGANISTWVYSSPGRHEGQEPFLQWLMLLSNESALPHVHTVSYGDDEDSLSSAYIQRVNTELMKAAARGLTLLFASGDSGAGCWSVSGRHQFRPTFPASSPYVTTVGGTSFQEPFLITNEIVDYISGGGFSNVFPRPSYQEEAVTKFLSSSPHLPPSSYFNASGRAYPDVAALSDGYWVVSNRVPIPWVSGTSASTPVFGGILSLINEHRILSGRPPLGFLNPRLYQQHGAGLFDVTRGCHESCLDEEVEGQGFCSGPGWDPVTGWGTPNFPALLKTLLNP

No constants are given. Whether binding was seen depends on the method and setting. In cells and extracts the contact can be indirect. Binding calls can cover weak binding; strength is not graded here.

Test [1] concerns the target T1, CLN6 (transfected, HeLa) (UniProt Q9NWW5).
T1 sequence: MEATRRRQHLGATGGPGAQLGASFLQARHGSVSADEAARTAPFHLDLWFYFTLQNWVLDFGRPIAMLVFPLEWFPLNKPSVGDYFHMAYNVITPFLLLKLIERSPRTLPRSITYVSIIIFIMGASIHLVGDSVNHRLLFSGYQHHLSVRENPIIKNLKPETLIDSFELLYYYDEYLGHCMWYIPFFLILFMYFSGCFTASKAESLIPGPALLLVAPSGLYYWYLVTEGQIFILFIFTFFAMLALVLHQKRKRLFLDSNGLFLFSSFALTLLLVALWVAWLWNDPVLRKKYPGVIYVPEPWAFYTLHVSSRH
The test is described as follows: co-IP; IP with an anti-Myc antibody from HeLa cells transfected for 24 hours; parental, KCTD7-deficient, CLN5 KD or CLN5-overexpressing cells.

The target of test [2] is CLN8 (transfected, HeLa) (UniProt Q9UBY8). The test is described as above.

In the case of “TPP1 (transfected, HeLa) (from UniProt O14773) (enzyme)”, the binding result in test [1] and in test [2] was “binds” throughout.
